Test results taken from patent US5169833A (G. D. Searle & Co., priority 1991, dated 1992).

Experiment: general procedure: Boc solid-phase peptide synthesis; Merrifield resin; p-methylbenzhydrylamine (pMBHA) resin (~0.5 mequiv/g)
Conditions: for final HPLC purity: whole synthesis, analytical HPLC; for oxidative folding yield: oxidative folding step

## -dimethyl-L-tyrosyl-3-mercapto-D-valylglycyl-L-phenylalanyl-3-mercapto-D-valine, cyclic (2→5)-disulfide, methyl ester
Late stage modification step
  step yield: 100%

## 2,6-dimethyl-L-tyrosyl-3-mercapto-D-valylglycyl-L-phenylalanyl-3-mercapto-L-valine, cyclic (2→5)-disulfide
  final HPLC purity: greater than 99%

## 3-mercapto-D-valylglycyl-4-chlorophenylalanyl-3-mercapto-D-valine, cyclic (2→5)-disulfide, phenylmethyl ester, monohydrochloride
Late stage modification step
  step yield: 99%

## N-[(1,1-dimethylethoxy)carbonyl]-3-mercapto-D-valylglycyl-L-phenylalanyl-3- mercapto-D-valine, cyclic (2→5)-disulfide methyl ester
  oxidative folding yield: 54%

## 2,6-dimethyl-L-tyrosyl-3-mercapto-D-valylglycyl-L-phenylalanyl-3-mercapto-D-valine, cyclic (2→5)-disulfide
  final HPLC purity: greater than 99%

## N-[(1,1-dimethylethoxy)carbonyl]-2,6-dimethyl-L-tyrosyl-3-mercapto-D-valylglycyl-L-phenylalanyl-3-mercapto-D -valine, cyclic (2→5)-disulfide, methyl ester
Coupling step
  step yield: 42%

## 2,6-dimethyl-L-tyrosyl-3-mercapto-D-valylglycyl-4-chloro-L-phenylalanyl-3-mercapto-D-valine, cyclic (2→5)-disulfide, phenylmethyl ester, monohydrochloride
Late stage modification step, HCl
  step yield: 74%

## N-[(1,1-dimethylethoxy)carbonyl]-2,6-dimethyl-L-tyrosyl-3-mercapto-D-valylglycyl-4-chloro-L-phenylalanyl-3-mercapto-D-valine, cyclic (2→5)-disulfide, phenylmethyl ester
Coupling step
  step yield: 48%

## 3-mercapto-D-valylglycyl-L-phenylalanyl-3-mercapto-D-valine, cyclic (2→5)-disulfide, methyl ester, monohydrochloride
Late stage modification step
  step yield: 86%

## 2,6-dimethyl-L-tyrosyl-3-mercapto-D-valylglycyl-4-fluoro-L-phenylalanyl-3-mercapto-D-valine, cyclic (2→5)-disulfide
  final HPLC purity: greater than 99%

## N-[(1,1-dimethylethoxy)carbonyl]-3-mercapto-D-valylglycyl-4-chlorophenylalanyl-3-mercapto-D-valine, cyclic (2→5)-disulfide, phenylmethyl ester
  oxidative folding yield: 36%

The same purity stands for every peptide and may come from a single statement.
